The list shows a part of the results.
Experiments:
Experiment in all cases: log2 fold change, soluble protein after heating vs DMSO (PISA); higher = thermal stabilisation; K562 cells, 10 uM, 30 min; active = over 0.2 and 3.5 SD of the protein, either way, in both replicates (recomputed)
bafetinib = compound: Cc1ccc(NC(=O)c2ccc(CN3CC[C@H](N(C)C)C3)c(C(F)(F)F)c2)cc1Nc1nccc(-c2cncnc2)n1 [bafetinib]
In short: (§1)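 Aliquots of K562 cells (2×10^6 cells/mL) treated with 10 μM compound for 30 min were heated for 3 min over 48°C-58°C. After pooling and extraction in PBS with 0.5% NP-40 at 4°C, soluble protein from a 21,000xg, 90 min spin was quantified by TMTpro 16plex LC-MS/MS with channel sums equalised. Thermal stability is expressed against control samples, from duplicates, as a log2 fold change.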

Sequences of proteins named here, by UniProt entry; tags and fusion partners are left off. A change or cut given only in a name is not applied to a line headed by its entry.
UniProt Q9UMZ2: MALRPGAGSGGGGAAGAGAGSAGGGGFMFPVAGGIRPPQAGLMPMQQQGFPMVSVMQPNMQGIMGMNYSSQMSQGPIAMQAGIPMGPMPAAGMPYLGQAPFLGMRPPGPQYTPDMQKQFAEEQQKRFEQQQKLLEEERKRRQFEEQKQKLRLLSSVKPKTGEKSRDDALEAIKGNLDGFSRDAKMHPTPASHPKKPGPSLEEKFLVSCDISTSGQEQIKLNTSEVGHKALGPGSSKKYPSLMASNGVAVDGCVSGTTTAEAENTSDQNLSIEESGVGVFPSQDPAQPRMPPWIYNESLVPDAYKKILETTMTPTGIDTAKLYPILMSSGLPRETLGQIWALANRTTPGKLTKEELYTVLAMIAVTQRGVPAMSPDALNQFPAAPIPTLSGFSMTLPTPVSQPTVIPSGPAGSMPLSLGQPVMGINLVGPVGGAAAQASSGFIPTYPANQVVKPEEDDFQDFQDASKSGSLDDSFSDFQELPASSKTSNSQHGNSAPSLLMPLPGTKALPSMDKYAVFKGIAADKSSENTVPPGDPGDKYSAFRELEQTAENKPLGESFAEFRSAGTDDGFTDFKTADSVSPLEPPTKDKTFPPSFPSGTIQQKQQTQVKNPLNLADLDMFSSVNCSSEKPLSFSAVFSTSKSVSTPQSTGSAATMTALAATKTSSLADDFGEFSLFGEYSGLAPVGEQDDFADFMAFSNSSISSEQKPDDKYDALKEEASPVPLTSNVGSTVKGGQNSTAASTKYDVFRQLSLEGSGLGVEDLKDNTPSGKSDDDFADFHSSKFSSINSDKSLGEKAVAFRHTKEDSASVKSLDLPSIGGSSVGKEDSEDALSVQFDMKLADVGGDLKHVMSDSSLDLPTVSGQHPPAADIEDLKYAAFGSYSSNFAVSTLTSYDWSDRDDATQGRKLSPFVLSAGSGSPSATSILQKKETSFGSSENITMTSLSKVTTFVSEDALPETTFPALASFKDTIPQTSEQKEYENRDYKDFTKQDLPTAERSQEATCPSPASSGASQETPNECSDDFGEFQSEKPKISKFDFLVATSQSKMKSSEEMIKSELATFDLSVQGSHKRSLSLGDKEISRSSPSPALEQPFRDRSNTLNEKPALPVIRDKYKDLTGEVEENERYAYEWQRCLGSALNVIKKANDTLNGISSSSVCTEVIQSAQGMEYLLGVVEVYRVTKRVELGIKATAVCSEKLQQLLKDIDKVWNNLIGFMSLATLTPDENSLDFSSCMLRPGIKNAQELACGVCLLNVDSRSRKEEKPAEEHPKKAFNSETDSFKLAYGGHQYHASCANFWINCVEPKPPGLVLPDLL
UniProt Q9UNK0: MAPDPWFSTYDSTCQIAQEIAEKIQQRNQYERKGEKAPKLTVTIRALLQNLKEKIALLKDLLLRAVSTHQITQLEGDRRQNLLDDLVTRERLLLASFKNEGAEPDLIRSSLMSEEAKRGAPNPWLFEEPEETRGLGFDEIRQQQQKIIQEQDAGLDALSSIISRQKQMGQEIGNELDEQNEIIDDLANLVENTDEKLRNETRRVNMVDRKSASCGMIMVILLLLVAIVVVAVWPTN
UniProt O43752: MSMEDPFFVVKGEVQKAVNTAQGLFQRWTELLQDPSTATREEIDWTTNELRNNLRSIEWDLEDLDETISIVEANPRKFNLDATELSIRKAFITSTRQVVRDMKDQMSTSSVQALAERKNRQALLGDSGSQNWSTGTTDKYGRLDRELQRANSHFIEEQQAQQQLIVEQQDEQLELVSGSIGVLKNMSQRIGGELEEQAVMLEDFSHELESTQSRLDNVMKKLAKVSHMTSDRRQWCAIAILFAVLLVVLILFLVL
UniProt Q8NBJ7: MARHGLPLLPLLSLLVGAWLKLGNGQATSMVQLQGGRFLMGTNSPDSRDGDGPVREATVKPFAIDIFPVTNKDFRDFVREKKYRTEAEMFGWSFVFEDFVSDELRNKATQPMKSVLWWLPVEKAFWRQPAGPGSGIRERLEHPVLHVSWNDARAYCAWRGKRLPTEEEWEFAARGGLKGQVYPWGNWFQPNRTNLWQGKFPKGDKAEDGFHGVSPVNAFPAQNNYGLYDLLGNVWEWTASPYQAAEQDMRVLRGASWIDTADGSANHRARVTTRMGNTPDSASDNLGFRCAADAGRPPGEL
UniProt Q13033: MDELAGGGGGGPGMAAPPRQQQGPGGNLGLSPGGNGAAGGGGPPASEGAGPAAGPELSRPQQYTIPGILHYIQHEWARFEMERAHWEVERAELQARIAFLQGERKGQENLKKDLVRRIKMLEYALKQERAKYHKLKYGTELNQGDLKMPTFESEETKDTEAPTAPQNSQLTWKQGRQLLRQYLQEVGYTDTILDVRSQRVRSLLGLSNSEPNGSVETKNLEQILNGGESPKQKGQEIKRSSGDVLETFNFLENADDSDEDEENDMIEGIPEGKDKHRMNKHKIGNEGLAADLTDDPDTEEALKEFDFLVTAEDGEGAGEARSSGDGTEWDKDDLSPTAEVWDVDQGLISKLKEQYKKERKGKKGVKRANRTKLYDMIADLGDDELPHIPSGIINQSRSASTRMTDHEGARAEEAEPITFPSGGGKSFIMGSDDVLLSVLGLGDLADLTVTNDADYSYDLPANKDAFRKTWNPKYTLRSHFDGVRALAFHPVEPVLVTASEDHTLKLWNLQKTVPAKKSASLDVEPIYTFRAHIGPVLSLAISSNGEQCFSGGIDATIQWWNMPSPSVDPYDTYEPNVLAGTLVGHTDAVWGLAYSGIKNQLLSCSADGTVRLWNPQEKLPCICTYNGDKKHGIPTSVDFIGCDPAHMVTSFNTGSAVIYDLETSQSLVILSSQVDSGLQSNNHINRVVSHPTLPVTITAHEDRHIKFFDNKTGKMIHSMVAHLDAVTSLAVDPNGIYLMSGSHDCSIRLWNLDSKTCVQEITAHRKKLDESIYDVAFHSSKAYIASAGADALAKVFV
UniProt O43760: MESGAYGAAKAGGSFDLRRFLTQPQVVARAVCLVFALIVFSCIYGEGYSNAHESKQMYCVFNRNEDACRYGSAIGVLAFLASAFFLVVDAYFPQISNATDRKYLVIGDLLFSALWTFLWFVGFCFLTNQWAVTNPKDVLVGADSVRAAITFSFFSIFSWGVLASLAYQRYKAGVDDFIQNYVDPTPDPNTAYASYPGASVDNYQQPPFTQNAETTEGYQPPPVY
UniProt Q9UMX1: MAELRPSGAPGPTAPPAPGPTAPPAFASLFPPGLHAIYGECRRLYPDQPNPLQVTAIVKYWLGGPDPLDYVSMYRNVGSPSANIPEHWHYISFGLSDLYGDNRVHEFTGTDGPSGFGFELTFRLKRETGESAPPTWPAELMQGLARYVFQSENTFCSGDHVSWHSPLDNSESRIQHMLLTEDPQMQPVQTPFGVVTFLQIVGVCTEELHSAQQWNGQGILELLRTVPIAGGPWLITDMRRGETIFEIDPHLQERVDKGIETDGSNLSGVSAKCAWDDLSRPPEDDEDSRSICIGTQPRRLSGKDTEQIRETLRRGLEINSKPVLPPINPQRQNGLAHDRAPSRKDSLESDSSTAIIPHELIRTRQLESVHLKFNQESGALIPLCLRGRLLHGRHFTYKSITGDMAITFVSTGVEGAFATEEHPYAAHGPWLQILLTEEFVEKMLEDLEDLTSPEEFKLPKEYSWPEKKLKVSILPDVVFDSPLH
UniProt Q9ULQ0: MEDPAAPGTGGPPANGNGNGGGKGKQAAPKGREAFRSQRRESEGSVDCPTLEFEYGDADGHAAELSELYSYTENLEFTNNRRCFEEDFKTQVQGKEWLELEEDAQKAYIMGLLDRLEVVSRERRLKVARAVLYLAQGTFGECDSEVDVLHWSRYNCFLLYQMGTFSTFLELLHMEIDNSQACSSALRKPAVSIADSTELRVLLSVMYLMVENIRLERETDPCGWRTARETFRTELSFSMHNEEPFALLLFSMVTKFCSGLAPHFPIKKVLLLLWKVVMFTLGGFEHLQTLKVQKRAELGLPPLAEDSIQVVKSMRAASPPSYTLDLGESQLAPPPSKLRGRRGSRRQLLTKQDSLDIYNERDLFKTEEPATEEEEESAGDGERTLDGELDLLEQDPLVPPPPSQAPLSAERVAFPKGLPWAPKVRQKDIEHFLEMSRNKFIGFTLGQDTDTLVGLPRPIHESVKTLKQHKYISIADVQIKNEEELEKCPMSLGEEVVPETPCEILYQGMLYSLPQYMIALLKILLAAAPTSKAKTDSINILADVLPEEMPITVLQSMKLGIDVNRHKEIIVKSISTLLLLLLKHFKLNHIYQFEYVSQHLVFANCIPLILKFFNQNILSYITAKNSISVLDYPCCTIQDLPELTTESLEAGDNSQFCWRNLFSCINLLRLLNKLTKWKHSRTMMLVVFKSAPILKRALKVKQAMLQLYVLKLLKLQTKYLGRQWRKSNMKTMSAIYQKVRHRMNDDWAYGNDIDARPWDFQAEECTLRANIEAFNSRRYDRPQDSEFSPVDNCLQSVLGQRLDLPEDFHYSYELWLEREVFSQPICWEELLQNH
UniProt P0DMM9: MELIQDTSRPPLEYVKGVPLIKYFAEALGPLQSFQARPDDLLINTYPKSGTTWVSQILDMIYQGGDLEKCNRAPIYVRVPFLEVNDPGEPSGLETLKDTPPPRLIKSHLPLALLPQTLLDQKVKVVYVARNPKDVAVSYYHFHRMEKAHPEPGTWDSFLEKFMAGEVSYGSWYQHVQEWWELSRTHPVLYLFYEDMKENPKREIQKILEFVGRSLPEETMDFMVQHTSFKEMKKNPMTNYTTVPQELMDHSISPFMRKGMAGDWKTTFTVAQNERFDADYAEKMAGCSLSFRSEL
UniProt Q9P2R7: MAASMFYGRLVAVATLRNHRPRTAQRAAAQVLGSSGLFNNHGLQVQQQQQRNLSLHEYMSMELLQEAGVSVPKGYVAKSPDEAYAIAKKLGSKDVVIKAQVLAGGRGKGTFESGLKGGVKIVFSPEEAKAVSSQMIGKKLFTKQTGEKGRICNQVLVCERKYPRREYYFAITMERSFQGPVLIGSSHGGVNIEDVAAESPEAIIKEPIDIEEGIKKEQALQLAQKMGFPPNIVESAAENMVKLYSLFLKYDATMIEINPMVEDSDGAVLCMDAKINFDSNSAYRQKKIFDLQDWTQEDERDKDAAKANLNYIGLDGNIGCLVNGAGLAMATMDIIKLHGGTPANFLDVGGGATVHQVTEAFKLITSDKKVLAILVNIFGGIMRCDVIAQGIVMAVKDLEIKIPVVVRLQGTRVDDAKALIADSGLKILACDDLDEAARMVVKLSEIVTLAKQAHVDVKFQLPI
UniProt Q9UH65: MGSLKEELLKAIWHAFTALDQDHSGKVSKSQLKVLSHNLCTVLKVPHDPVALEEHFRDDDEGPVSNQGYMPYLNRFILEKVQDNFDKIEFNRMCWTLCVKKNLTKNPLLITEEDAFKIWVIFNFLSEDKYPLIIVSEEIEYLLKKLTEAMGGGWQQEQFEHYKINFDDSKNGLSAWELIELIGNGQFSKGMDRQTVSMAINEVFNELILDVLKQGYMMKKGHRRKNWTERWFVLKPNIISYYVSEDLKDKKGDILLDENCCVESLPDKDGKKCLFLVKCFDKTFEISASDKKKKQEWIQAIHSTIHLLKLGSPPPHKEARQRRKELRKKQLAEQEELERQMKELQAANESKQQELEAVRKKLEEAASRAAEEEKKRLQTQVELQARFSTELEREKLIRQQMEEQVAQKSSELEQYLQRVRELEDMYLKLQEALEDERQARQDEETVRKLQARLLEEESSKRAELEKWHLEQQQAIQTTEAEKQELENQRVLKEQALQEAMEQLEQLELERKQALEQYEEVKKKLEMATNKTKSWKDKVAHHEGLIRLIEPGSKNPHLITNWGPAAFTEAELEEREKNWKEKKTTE
UniProt Q9Y3F4: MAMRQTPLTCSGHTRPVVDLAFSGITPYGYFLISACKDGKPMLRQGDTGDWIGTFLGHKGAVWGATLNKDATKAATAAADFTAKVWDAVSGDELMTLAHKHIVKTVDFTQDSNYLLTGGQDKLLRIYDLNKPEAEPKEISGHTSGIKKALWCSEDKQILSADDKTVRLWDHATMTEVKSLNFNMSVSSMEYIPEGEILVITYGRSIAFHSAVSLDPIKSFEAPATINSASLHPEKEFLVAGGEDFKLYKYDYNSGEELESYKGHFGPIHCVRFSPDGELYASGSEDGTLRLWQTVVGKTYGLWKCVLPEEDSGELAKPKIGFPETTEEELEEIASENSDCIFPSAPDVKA
UniProt Q12962, whole entry, looked up: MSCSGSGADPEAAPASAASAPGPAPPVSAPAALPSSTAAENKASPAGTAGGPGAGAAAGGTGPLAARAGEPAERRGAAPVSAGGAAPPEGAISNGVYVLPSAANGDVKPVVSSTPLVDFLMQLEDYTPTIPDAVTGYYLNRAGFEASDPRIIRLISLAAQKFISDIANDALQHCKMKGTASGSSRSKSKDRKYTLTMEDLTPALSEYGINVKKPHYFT
UniProt P37802: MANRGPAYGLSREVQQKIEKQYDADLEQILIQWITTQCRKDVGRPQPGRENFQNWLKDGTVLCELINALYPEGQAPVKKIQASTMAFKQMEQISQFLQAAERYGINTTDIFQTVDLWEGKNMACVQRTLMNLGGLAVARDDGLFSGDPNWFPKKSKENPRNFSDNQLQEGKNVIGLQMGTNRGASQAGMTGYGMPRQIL

[1] = compound: Cc1cccc(CC(=O)N2CCc3c2ccc(-c2cn(C)c4ncnc(N)c24)c3F)n1
In short: as §1

nilotinib = compound: Cc1cn(-c2cc(NC(=O)c3ccc(C)c(Nc4nccc(-c5cccnc5)n4)c3)cc(C(F)(F)F)c2)cn1 [nilotinib]
In short: as §1

[2] = compound: Cc1nc(Nc2n[nH]c3c2CN(C(=O)N[C@H](CN(C)C)c2ccccc2)C3(C)C)c2sccc2n1
In short: as §1

dasatinib = compound: Cc1nc(Nc2ncc(C(=O)Nc3c(C)cccc3Cl)s2)cc(N2CCN(CCO)CC2)n1 [dasatinib]
In short: as §1

[3] = compound: Cc1ncc(-c2ccnc(Nc3ccc(S(C)(=O)=O)cc3)n2)n1C(C)C
In short: as §1

[4] = compound: Cn1cc(-c2ccc3c(c2)CCN3C(=O)Cc2cccc(C(F)(F)F)c2)c2c(N)ncnc21
In short: as §1

[5] = compound: Cn1cc(-c2ccc3nnc(C(F)(F)c4ccc5ncccc5c4)n3n2)cn1
In short: as §1

tipifarnib = compound: Cn1cncc1[C@@](N)(c1ccc(Cl)cc1)c1ccc2c(c1)c(-c1cccc(Cl)c1)cc(=O)n2C [tipifarnib]
In short: as §1

mubritinib = compound: FC(F)(F)c1ccc(/C=C/c2nc(COc3ccc(CCCCn4ccnn4)cc3)co2)cc1 [mubritinib]
In short: as §1

Measured: log2 fold change

SURF1 (UniProt Q15526)
inactive: bafetinib -0.184 | [1] -0.042 | nilotinib -0.065 | [2] 0.028 | dasatinib -0.028 | [3] 0.011 | [4] 0.021 | [5] 0.019 | tipifarnib -0.061 | mubritinib 0.042

SYNRG (UniProt Q9UMZ2)
inactive: bafetinib 0.002 | [1] 0.005 | nilotinib -0.053 | [2] -0.036 | dasatinib -0.017 | [3] -0.005 | [4] -0.018 | [5] -0.01 | tipifarnib -0.008 | mubritinib -0.033

STX8 (UniProt Q9UNK0)
inactive: bafetinib -0.002 | [1] 0.036 | nilotinib 0.033 | [2] 0.028 | dasatinib 0.055 | [3] -0.02 | [4] -0.034 | [5] -0.037 | tipifarnib 0.042 | mubritinib 0.078

SUMO1 (UniProt P63165)
inactive: bafetinib -0.071 | [1] -0.023 | nilotinib -0.022 | [2] -0.078 | dasatinib 0.041 | [3] -0.04 | [4] -0.209 | [5] -0.068 | tipifarnib -0.35 | mubritinib 0.001

STOML2 (UniProt Q9UJZ1)
inactive: bafetinib 0.004 | [1] -0.089 | nilotinib -0.003 | [2] 0.016 | dasatinib 0.046 | [3] -0.009 | [4] 0.04 | [5] -0.005 | tipifarnib 0.049 | mubritinib -0.009

STX6 (UniProt O43752)
inactive: bafetinib -0.057 | [1] 0.028 | nilotinib 0.062 | [2] -0.028 | dasatinib 0.009 | [3] -0.025 | [4] -0.033 | [5] -0.003 | tipifarnib -0.009 | mubritinib 0.049

2 entries drawn at random from those above:
STX6 (UniProt O43752)
inactive: bafetinib -0.057 | [1] 0.028 | nilotinib 0.062 | [2] -0.028 | dasatinib 0.009 | [3] -0.025 | [4] -0.033 | [5] -0.003 | tipifarnib -0.009 | mubritinib 0.049

SUMO1 (UniProt P63165)
inactive: bafetinib -0.071 | [1] -0.023 | nilotinib -0.022 | [2] -0.078 | dasatinib 0.041 | [3] -0.04 | [4] -0.209 | [5] -0.068 | tipifarnib -0.35 | mubritinib 0.001

More results.

SYAP1 (UniProt Q96A49)
inactive: bafetinib -0.027 | [1] 0.019 | nilotinib -0.006 | [2] -0.035 | dasatinib -0.022 | [3] 0.017 | [4] -0.013 | [5] 0.002 | tipifarnib -0.035 | mubritinib 0.037

SZRD1 (UniProt Q7Z422)
inactive: bafetinib -0.063 | [1] -0.042 | nilotinib 0.004 | [2] 0.017 | dasatinib 0.051 | [3] -0.01 | [4] -0.091 | [5] -0.036 | tipifarnib -0.009 | mubritinib 0.038

TAF5L (UniProt O75529)
inactive: bafetinib -0.199

SUMF2 (UniProt Q8NBJ7)
inactive: bafetinib -0.074 | [1] 0.038 | nilotinib -0.033 | [2] -0.019 | dasatinib -0.001 | [3] 0 | [4] -0.014 | [5] 0.03 | tipifarnib 0.034 | mubritinib -0.019

SUGT1 (UniProt Q9Y2Z0)
inactive: bafetinib -0.052 | [1] 0.026 | nilotinib -0.005 | [2] -0.032 | dasatinib -0.019 | [3] 0.008 | [4] 0.006 | [5] -0.009 | tipifarnib -0.051 | mubritinib 0.057

STRN3 (UniProt Q13033)
inactive: bafetinib -0.055 | [1] 0.016 | nilotinib -0.029 | [2] 0.09 | dasatinib 0.021 | [3] 0.015 | [4] -0.009 | [5] 0.032 | tipifarnib -0.068 | mubritinib 0.032

STX16 isoform 2 (UniProt O14662)
inactive: bafetinib 0.042 | [1] 0.058 | nilotinib -0.057 | [2] -0.056 | dasatinib -0.064 | [3] -0.023 | [4] 0.049 | [5] 0.007 | tipifarnib 0.041 | mubritinib 0.114

TAF2 (UniProt Q6P1X5)
inactive: bafetinib 0.133 | [1] -0.247 | nilotinib -0.127 | [2] 0.001 | dasatinib 0.002 | [3] -0.024 | [4] -0.334 | [5] -0.061 | tipifarnib 0.051 | mubritinib -0.157

SYNGR2 (UniProt O43760)
inactive: bafetinib -0.022 | [1] -0.033 | nilotinib 0.051 | [2] 0.002 | dasatinib -0.016 | [3] -0.026 | [4] -0.018 | [5] -0.034 | tipifarnib 0.027 | mubritinib 0.054

TATDN1 (UniProt Q6P1N9)
inactive: bafetinib -0.06 | [1] -0.005 | nilotinib 0.028 | [2] -0.033 | dasatinib 0.106 | [3] -0.01 | [4] -0.031 | [5] 0.042 | tipifarnib 0.063 | mubritinib 0.074

STK38 (UniProt Q15208)
active: [2] -0.343
inactive: bafetinib 0.054 | [1] 0 | nilotinib -0.105 | dasatinib -0.136 | [3] 0.009 | [4] 0.035 | [5] 0.008 | tipifarnib -0.079 | mubritinib -0.083

STK39 (UniProt Q9UEW8)
inactive: bafetinib -0.09 | [1] 0 | nilotinib -0.076 | [2] -0.028 | dasatinib -0.108 | [3] -0.016 | [4] -0.008 | [5] -0.032 | tipifarnib -0.031 | mubritinib -0.083

SUFU (UniProt Q9UMX1)
inactive: bafetinib 0.029

SYNCRIP isoform 3 (UniProt O60506)
inactive: bafetinib 0.087 | [1] 0.01 | nilotinib -0.025 | [2] 0.009 | dasatinib 0.098 | [3] -0.025 | [4] -0.103 | [5] 0.05 | tipifarnib 0.065 | mubritinib -0.089

SUPT6H (UniProt Q7KZ85)
inactive: bafetinib 0.055 | [1] 0.064 | nilotinib -0.103 | [2] 0.064 | dasatinib -0.385 | [3] 0.077 | [4] -0.021 | [5] -0.111 | tipifarnib -0.026 | mubritinib 0.156

STRIP2 (UniProt Q9ULQ0)
inactive: bafetinib 0.011 | [1] -0.1 | nilotinib -0.032 | [2] 0.084 | dasatinib -0.106 | [3] 0.035 | [4] 0.028 | [5] -0.03 | tipifarnib -0.031 | mubritinib -0.057

SULT1A3 isoform 3 (UniProt P0DMM9)
inactive: bafetinib -0.149 | [1] 0.134 | nilotinib -0.014 | [2] 0.036 | dasatinib -0.132 | [3] 0.025 | [4] 0.237 | [5] 0.321 | tipifarnib 0.016 | mubritinib -0.004

TAF7 (UniProt Q15545)
inactive: bafetinib -0.102 | [1] 0.017 | nilotinib -0.037 | [2] -0.056 | dasatinib 0.005 | [3] 0.014 | [4] -0.012 | [5] 0.005 | tipifarnib -0.009 | mubritinib 0.014

SUCLA2 (UniProt Q9P2R7)
active: mubritinib -0.697
inactive: bafetinib 0 | [1] -0.065 | nilotinib -0.098 | [2] 0.057 | dasatinib -0.149 | [3] -0.04 | [4] 0.005 | [5] 0.038 | tipifarnib -0.01

SWAP70 (UniProt Q9UH65)
inactive: bafetinib -0.013 | [1] 0.065 | nilotinib 0.012 | [2] -0.082 | dasatinib 0.016 | [3] 0.017 | [4] 0.022 | [5] -0.023 | tipifarnib 0.029 | mubritinib 0.02

STXBP1 (UniProt P61764)
inactive: bafetinib 0.103 | [1] 0.075 | nilotinib -0.039 | [2] -0.186 | dasatinib -0.292 | [3] 0.056 | [4] 0.127 | [5] 0.012 | tipifarnib 0.06 | mubritinib 0.286

STRAP isoform 2 (UniProt Q9Y3F4)
inactive: bafetinib -0.003 | [1] -0.038 | nilotinib -0.004 | [2] 0.039 | dasatinib 0.044 | [3] 0.008 | [4] -0.023 | [5] -0.007 | tipifarnib -0.053 | mubritinib 0.005

TAF10 (UniProt Q12962)
inactive: bafetinib 0.009 | [1] -0.033 | nilotinib 0 | [2] 0.05 | dasatinib 0.062 | [3] -0.037 | [4] 0.031 | [5] 0.015 | tipifarnib -0.023 | mubritinib 0.009

STX5 (UniProt Q13190)
inactive: bafetinib 0.049 | [1] -0.026 | nilotinib -0.26 | [2] -0.305 | dasatinib -0.142 | [3] 0.056 | [4] 0.022 | [5] 0.035 | tipifarnib -0.09 | mubritinib 0.07

TAGLN2 isoform 2 (UniProt P37802)
inactive: bafetinib -0.027 | [1] 0.034 | nilotinib 0.015 | [2] -0.052 | dasatinib -0.031 | [3] 0.008 | [4] 0.054 | [5] 0 | tipifarnib -0.038 | mubritinib 0.04

— the supplement of paper PMC10849652
